Source: PubChem BioAssay AID540303 (National Center for Advancing Translational Sciences (NCATS), 2011)
The whole screen tested about 330,000 compounds, of which about 1,000 (0.3%) were called active. The inconclusive results got no clear call from the source; some entries with a clear call stand among them for comparison. Calls follow the shape of the dose curve; as a rule, active = well fitted inhibition curve with a large enough effect; inconclusive = small, poorly fitted or top-dose-only effect; inactive = no such curve, though single readings can be large or run the other way; tested in mouse RAW 264.7 cells. A potency beside an inconclusive call is a rough fit, not a confirmed value.

assay: qHTS for Inhibitors of Cell Surface uPA Generation; conditions: cell surface uPA generation assay; series mostly up to 38.3 µM; activity change, negative = inhibition: at the top concentration; also: nearly all actives have a fitted effect of over 55% in size
In short: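 ATP-Lite luminescence in RAW 264.7 cells after 24 h of exposure to compound, tested up to 38.3 uM final in 1:5 steps. Raised ATP reflects inhibition of uPA-dependent LF delivery to the cytoplasm.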
% is scaled to controls: 0 for no effect and ±100 for the full control effect; potency is read from the fitted curve at half-maximal effect.

| Structure (SMILES) | Potency | activity change, negative = inhibition |
| --- | --- | --- |
| O=C(CCCOc1ccc(Cl)cc1)NC1CCCCC1 | inconclusive: 1.58 µM [inhibitor, partial curve, poor fit] | – |
| Cc1ccc(-c2cc3onc(-c4ccccc4)c3c(=O)n2C)cc1 | inconclusive: 2.82 µM [inhibitor, single point] | – |
| O=C1c2ccccc2-c2onc3ccc(Oc4ccccc4)c1c23 | – | inactive: -8.63% |
| CN(C(=O)COc1cc(=O)n(C)c2ccccc12)c1ccc(Cl)cc1 | – | inactive: -9.73% |
| O=C1c2ccccc2/C(=C\C#Cc2ccccn2)N1c1ccccc1 | inconclusive: 12.6 µM [inhibitor, single point] | – |
| COc1cccc(CC(=O)Nc2ccc3nc(C)sc3c2)c1 | – | inactive: 4.56% |
| Oc1c(Cl)cc(Cl)c2cccnc12 | inconclusive: 22.4 µM [inhibitor, partial curve, poor fit] | – |
| CCOc1ccccc1NS(=O)(=O)c1c[nH]c(C(=O)OC)c1 | inconclusive: 28.2 µM [inhibitor, single point] | – |
| COc1ccc([C@H]2CC(=O)C=C(c3ccc(F)cc3OCc3ccccc3)C2)cc1 | inconclusive: 28.2 µM [inhibitor, single point] | – |
| CC(NC(=O)/C(C#N)=C/c1ccc(Cl)c([N+](=O)[O-])c1)c1ccccc1 (configuration not stated) | inconclusive: 28.2 µM [inhibitor, single point] | – |
| CCCCN(C)C(=O)C1CCCN(S(=O)(=O)c2ccc3c(c2)CC(C)N3C(=O)C2CC2)C1 (configuration not stated) | – | inactive: -7.79% |
| COc1cccc(/C=C(\C)C(=O)c2c(C)cc(C)[nH]c2=O)c1OC | inconclusive: 0.0089 µM [inhibitor, full curve, poor fit] | – |
| O=C(Nc1ncnc2c1C(c1ccccc1)c1c(ccc3ccccc13)O2)c1ccccc1 (configuration not stated) | inconclusive: 11.2 µM [inhibitor, partial curve, poor fit] | – |
| CC(=O)COc1ccc2c(c1C)O/C(=C\c1ccco1)C2=O | – | inactive: -16.4% |
| CCOC(=S)SCC(=O)Nc1nc(C)c(C)s1 | inconclusive: 8.91 µM [inhibitor, partial curve, poor fit] | – |
| O=c1oc2ccccc2c(NC2CCCCC2)c1NS(=O)(=O)c1ccc(F)c(Cl)c1 | – | inactive: 2.9% |
| COc1ccccc1-c1sc2ccccc2c1-c1ccc(OCCN2CCCCC2)cc1 | inconclusive: 28.2 µM [inhibitor, single point] | – |
| COc1ccc(CCN(C)C(=O)c2ccc(C)c(S(=O)(=O)N3CCCCC3)c2)cc1OC | inconclusive: 3.16 µM [inhibitor, full curve, poor fit] | – |
| CC(=O)NC(c1ccco1)c1cc(F)c2cccnc2c1O (configuration not stated) | inconclusive: 11.2 µM [inhibitor, partial curve, poor fit] | – |
| CS(=O)(=O)c1ccc2nc(NC(=O)c3ccccc3Cl)sc2c1 | inconclusive: 12.6 µM [inhibitor, single point] | – |
| O=C(NCc1cccnc1)C12CC3CC(CC(Cl)(C3)C1)C2 | – | inactive: -2.6% |
| Cc1nc(N2CCOCC2)nc(Oc2ccccc2F)c1[N+](=O)[O-] | inconclusive: 10 µM [inhibitor, single point] | – |
| CCC/C(=C1/c2ccccc2C(=O)N1c1ccccc1)c1ccc2[nH]ccc2c1 | inconclusive: 8.91 µM [inhibitor, partial curve, poor fit] | – |
| COc1ccc(C(=O)NC(Cc2c[nH]c3ccccc23)C(=O)O)cc1 (configuration not stated) | – | inactive: 5.8% |

| Structure (SMILES) | Potency | activity change, negative = inhibition |
| --- | --- | --- |
| Cc1ccc(-c2nc(N)sc2-c2ccccc2)cc1C | – | inactive: 1.86% |
| COc1ccc(-c2nc3ccccc3c(=O)n2CCOc2c(C)cccc2C)cc1 | – | inactive: 5.66% |
| COc1cc(/C=C2/C(=N)N3C(=NC2=O)SN=C3S(C)(=O)=O)ccc1OS(=O)(=O)c1ccc(C)cc1 | inconclusive: 10 µM [inhibitor, single point] | – |
| COc1ccc(S(=O)(=O)N2CCOCC2)cc1NC(=O)c1ccc2c(c1)OCO2 | – | inactive: 23.4% |
| CCCn1c(=O)c2ccccc2n2c(SCCOc3ccccc3)nnc12 | inconclusive: 11.2 µM [inhibitor, partial curve, poor fit] | – |
| Fc1cc(NC(=S)NCc2ccc(CNC(=S)Nc3ccc(Cl)c(F)c3)cc2)ccc1Cl | inconclusive: 6.31 µM [inhibitor, partial curve, poor fit] | – |
| CCN(CC)CCCC(C)NC(=O)c1c(NC(=O)c2ccccc2)sc2c1CCCC2 (configuration not stated) | inconclusive: 11.2 µM [inhibitor, single point] | – |
| Cc1ccc(CNC(=O)Cn2cnc3c(NCc4ccccc4)ncnc32)o1 | active: 11.2 µM | – |
| COC(=O)c1sc(-c2cccs2)cc1N | – | inactive: -7.57% |
| O=C(CCn1cnc(-c2ccccc2)c1-c1ccccc1)N/N=C/c1ccc(O)cc1 | inconclusive: 12.6 µM [inhibitor, single point] | – |
| CCCN(CCC)CC(O)Cn1cc(/C=C/C(=O)c2ccccc2)c2ccccc21 (configuration not stated) | inconclusive: 7.94 µM [inhibitor, single point] | – |
| CC(=O)c1c(C)[nH]c(C(=O)COc2ccc3c(C)cc(=O)oc3c2)c1C | inconclusive: 2.82 µM [inhibitor, single point] | – |
| CN(Cc1nc(-c2ccc(Cl)cc2)no1)C(=O)c1ccc2c(c1)OCO2 | – | inactive: -4.7% |
| CN(C)c1nc(OCCNC(=O)COc2ccc(Cl)cc2Cl)nc(N(C)C)n1 | – | inactive: 1.49% |
| Cc1ccc(C(=O)Nc2ccc3c(c2)OCCO3)o1 | inconclusive: 2.24 µM [inhibitor, partial curve] | – |
| O=C(Nc1nnc(-c2ccc3c(c2)OCCO3)o1)c1ccc(Cc2ccccc2)cc1 | – | inactive: 2.49% |
| C[C@@H]1CC[C@H](O)/C=C/C(=O)O[C@H](C)CC[C@H](O)/C=C/C(=O)O1 | inconclusive: 12.6 µM [inhibitor, single point] | – |
| CC(C)NC(=O)CSc1nccc(-c2cccs2)n1 | inconclusive: 10 µM [inhibitor, partial curve, poor fit] | – |
| CCO[C@@H]1OC(C(=O)N2CCOCC2)=C[C@H](c2ccc(Br)cc2)[C@H]1CCCO | inconclusive: 31.6 µM [inhibitor, single point] | – |
| O=C(CCNC(=O)C1CCN(S(=O)(=O)c2ccc(F)cc2)CC1)NCCc1ccc(Cl)cc1 | inconclusive: 14.1 µM [inhibitor, partial curve, poor fit] | – |
| O=C1CC(N2CCN(Cc3ccccc3)CC2)C(=O)N1c1ccccc1 (configuration not stated) | – | inactive: 3.94% |
| CC1CC(C)CN(c2oc(-c3ccco3)nc2C#N)C1 (configuration not stated) | – | inactive: 2.69% |
| COC(C/C=C/C(=O)[C@H](C)OCc1ccccc1)OC | active: 11.2 µM | – |
| CCN1CCN(C(=O)c2ccc(-c3nc4ccccc4s3)s2)CC1 | inconclusive: 11.2 µM [inhibitor, single point] | – |

By substructure: the entries above with a cyano group

| Structure (SMILES) | Potency | activity change, negative = inhibition |
| --- | --- | --- |
| CC(NC(=O)/C(C#N)=C/c1ccc(Cl)c([N+](=O)[O-])c1)c1ccccc1 (configuration not stated) | inconclusive: 28.2 µM [inhibitor, single point] | – |
| CC1CC(C)CN(c2oc(-c3ccco3)nc2C#N)C1 (configuration not stated) | – | inactive: 2.69% |

Continuation:

| Structure (SMILES) | Potency | activity change, negative = inhibition |
| --- | --- | --- |
| CCN(CC(=O)Nc1ccc2c(c1)OC(F)(F)O2)Cc1nc2ccccc2c(=O)[nH]1 | – | inactive: 3.29% |
| O=C(NCc1ccccc1)C1=C[C@H](c2csc3ccccc23)C[C@H](OCCCCO)O1 | inconclusive: 7.94 µM [inhibitor, single point] | – |
| O=C(CSc1nnc(COc2ccccc2)o1)N1CCOCC1 | – | inactive: 6.43% |
| COc1ccc(CCNc2nc(-c3ccc(O)cc3)cs2)cc1OC | inconclusive: 28.2 µM [inhibitor, single point] | – |
| CCOc1ccc(/C=N/n2nnnc2N)cc1OCC | inconclusive: 5.62 µM [inhibitor, partial curve, poor fit] | – |
| CN/N=C(\Cc1nc2ccccc2[nH]1)c1ccc([N+](=O)[O-])cc1 | – | inactive: -6.04% |
| O=C(O)c1cccc(COc2ccc(CO)cc2Cl)c1 | inconclusive: 3.16 µM [inhibitor, partial curve] | – |
| COc1ccc(NC(=O)CCC(=O)N2CCCC2)c([N+](=O)[O-])c1 | – | inactive: 6.93% |
| CC1CCCC(C)N1CCCNC(=O)c1cc2c(s1)-c1ccccc1OC2 (configuration not stated) | inconclusive: 28.2 µM [inhibitor, single point] | – |
| COc1cc(NC(=O)CN2C(=O)C(=O)N(C3CCCC3)C2=O)cc(OC)c1 | – | inactive: 4.87% |
| COc1ccc(C(=O)NCCOc2cccc(Oc3ccccc3)c2)cc1OC | – | inactive: 7.84% |
| CN(C)c1nc(N)c([N+](=O)[O-])c(N2CCCCCC2)n1 | inconclusive: 3.16 µM [inhibitor, partial curve, poor fit] | – |
| O=c1c2c([N+](=O)[O-])cc([N+](=O)[O-])cc2nc2ccccn12 | inconclusive: 1 µM [inhibitor, full curve, poor fit] | – |
| O=C(NCCCc1ccccc1)c1cc([N+](=O)[O-])ccc1Cl | inconclusive: 2.51 µM [inhibitor, partial curve] | – |
| CC(C)C(=O)Nc1ncc(Cc2cccc(Cl)c2)s1 | – | inactive: -0.762% |
| Cc1cccc(OCC(=O)O/N=C(\N)c2ccccn2)c1C | – | inactive: 1.6% |
| O=C(Nc1nccs1)c1ccc(-c2ccccc2Cl)o1 | inconclusive: 7.94 µM [inhibitor, partial curve, poor fit] | – |
| C/C(=N\NC(=O)CSCc1ccccc1Cl)c1cc(O)ccc1O | active: 2.51 µM | – |
| CC12CCC(=O)C=C1CCC1C2C(=O)CC2(C)C1CCC2(O)C(=O)CO (configuration not stated) | – | inactive: -6.86% |
| COc1ccc(NC(=S)N(CCCN2CCCC2)Cc2cccn2Cc2ccc(Cl)cc2)cc1Cl | inconclusive: 11.2 µM [inhibitor, single point] | – |
| CCCCN1C(=O)C(=O)N(CC(=O)Nc2ccc(OC(F)(F)F)cc2)C1=O | – | inactive: -1.57% |
| COc1ccc(Cc2nc3ccc(C(=O)N(C)Cc4nccs4)cc3o2)cc1OC | – | inactive: 5.67% |
| COc1ccc(-c2nn(-c3ccccc3)cc2C(=O)OCC(=O)c2ccc(C)c([N+](=O)[O-])c2)cc1 | inconclusive: 7.94 µM [inhibitor, single point] | – |
| Cc1c(Cl)c([N+](=O)[O-])nn1CC(=O)NC(C)C1CC2CCC1C2 (configuration not stated) | – | inactive: 2.19% |
